# Laboratory results from paper PMC7801473 (2021).
# B1: NLRP1^CARD-SI (Y2H fusion) (domain or fragment, UniProt Q9C000-1 1374-1463)
# chain: DAPQLLHFVDQYREQLIARVTSVEVVLDKLHGQVLSQEQYERVLAENTRPSQMRKLFSLSQSWDRKCKDGLYQALAETHPHLIAELAAKG
# B2: NLRP1^CARD-AI (Y2H fusion) (domain or fragment, UniProt Q9C000-1 1374-1463)
# chain: B1 chain with R19A, R49A, R54A, A76K, A84M, A87W, A88E
# B3: NLRP1^CARD-SI-AI (Y2H fusion) (domain or fragment, UniProt Q9C000-1 1374-1463)
# chain: B1 chain with R19A, R49A, R54A
# Biological target: GAL4 DNA-binding domain (BD)-ASC^CARD fusion (human)
# Assay: two-hybrid; yeast two-hybrid (GAL4 Matchmaker), pGBK-T7 and pGAD-T7 in S. cerevisiae AH109, growth on -His/-Leu/-Trp plates, 30 °C
row,binding,Binder
1,binds,B1
2,no binding,B2
3,no binding,B3

# Positions count from the first letter of the chain named. Names and notes keep the numbering of the source. No constants are given. Whether binding was seen depends on the method and setting. Binding calls can cover weak binding; strength is not graded here. Tags and fused reporters may be left off the sequences shown.
